Measured values taken from US20260079169A1, “VOLATILE ORGANIC COMPOUNDS AS MARKERS FOR CELLULAR COMMUNICATION” (Technion Research and Development Foundation Limited, priority 2020, published 2026).

Experiments:
[1] = system: A549, H1299, H1975 human lung cancer lines and BEAS-2B normal cell line, each cultured alone; assay: VOCs headspace analysis (ITEX GC-MS) of mono-culture groups (Format-1), bulk cell samples 1×10^4 cells; type: cell-based; conditions: bulk 1 × 10^4 cell
[2] = system: different-cell pairs of BEAS-2B, A549, H1299, H1975 without physical contact under a mutual headspace; assay: VOCs headspace analysis (ITEX GC-MS) of different-cell pair co-culture headspace groups (Format-3), bulk cell samples; type: cell-based, human; conditions: bulk 1 × 10^4 cell

SMILES	VOC level in headspace, area under curve (AUC) normalized by STD AUC ([1]; A (BEAS-2B) mono-culture)	VOC level in headspace, area under curve (AUC) normalized by STD AUC ([1]; B (A549) mono-culture)	VOC level in headspace, area under curve (AUC) normalized by STD AUC ([1]; C (H1299) mono-culture)	VOC level in headspace, area under curve (AUC) normalized by STD AUC ([1]; D (H1975) mono-culture)	VOC level in headspace, area under curve (AUC) normalized by STD AUC ([2]; A + B (BEAS-2B + A549))	VOC level in headspace, area under curve (AUC) normalized by STD AUC ([2]; A + C (BEAS-2B + H1299))	VOC level in headspace, area under curve (AUC) normalized by STD AUC ([2]; A + D (BEAS-2B + H1975))	VOC level in headspace, area under curve (AUC) normalized by STD AUC ([2]; B + C (A549 + H1299))	VOC level in headspace, area under curve (AUC) normalized by STD AUC ([2]; B + D (A549 + H1975))	VOC level in headspace, area under curve (AUC) normalized by STD AUC ([2]; C + D (H1299 + H1975))
CCCC(C)C=O (stereo not shown) [VOC45]	0	2.917	0	3.563	0	0	0	0	8.98	3.893
OC1CCCCC1 [VOC46]	0	2.39	0	0	0	4.977	0	5.209	1.815	0
CC(C)C(C)C(C)(C)C (stereo not shown) [VOC47]	5.014	0	2.3932	0	5.359	7.2	0	5.336	0	3.926
CC(C)CCCC(=O)c1ccccc1 [VOC48]	0	7.574	0	0	5.71	0	0	1.044	0.1633	0
CCCC(C)(C)CC [VOC49]	4.827	2.117	0	0	10.4895	2.131	3.063	1.761	2.403	0
CCCCCCC(C)CC(C)C (stereo not shown) [VOC50]	5.192	0	0	6.742	5.9098	2.114	3.944	0	2.036	1.308
C/C=C/C(C)CCC (stereo not shown) [VOC51]	0	4.305	6.2735	7.715	1.824	3.342	0	0	0	0
CN(C)c1cc(C(=O)O)cc(C(=O)O)c1 [VOC52]	4.471	0	3.7782	0	3.328	2.88		1.131	0	0
